Binding data for two molecules are collected here from paper PMC6770473, “Proximity ligation assay to study protein–protein interactions of proteins on two different cells” (Biotechniques, 2018).

Amino acid sequences for entries named in this document (tags omitted). Residues count along the entry.
UniProt P19256, residues 29-250: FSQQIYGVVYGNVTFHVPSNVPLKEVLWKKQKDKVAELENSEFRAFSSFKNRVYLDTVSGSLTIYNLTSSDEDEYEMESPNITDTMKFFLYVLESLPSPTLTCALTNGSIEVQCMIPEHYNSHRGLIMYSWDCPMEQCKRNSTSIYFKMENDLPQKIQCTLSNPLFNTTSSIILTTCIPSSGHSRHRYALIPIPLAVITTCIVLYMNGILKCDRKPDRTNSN
UniProt P06729, residues 25-351: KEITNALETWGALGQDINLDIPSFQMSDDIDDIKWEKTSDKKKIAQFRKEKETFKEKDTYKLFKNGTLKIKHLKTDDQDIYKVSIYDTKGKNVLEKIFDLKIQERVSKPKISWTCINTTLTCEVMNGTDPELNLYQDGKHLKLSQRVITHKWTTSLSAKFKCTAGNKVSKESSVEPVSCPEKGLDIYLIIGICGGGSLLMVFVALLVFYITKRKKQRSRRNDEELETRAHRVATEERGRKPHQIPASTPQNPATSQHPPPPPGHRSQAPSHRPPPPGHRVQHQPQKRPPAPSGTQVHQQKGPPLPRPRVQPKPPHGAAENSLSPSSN

No constants are given. Whether binding was seen depends on the method and setting. Binding seen in cells or lysates may run through a third protein. Some binding calls cover weakened binding; strength is not graded here.

Assay [1] addresses CD58 (human (endogenous in HFLS-RA)) (UniProt P19256). The assay is described as follows: proximity ligation; Jurkat cells (CD2) coated on chamber slides, HFLS-RA cells (CD58) added over them, co-cultured 48 h at 37°C, methanol-fixed; Duolink PLA with mouse anti-CD2 and goat anti-CD58 primary antibodies; no peptide.
Assay [2] has the same target. Description: proximity ligation; inhibition format: HFLS-RA cells treated with SFTI-a (50 nM to 100 μM) for 2 h at 4°C, then added over Jurkat cells; 48 h co-culture; loss of CD2-CD58 PLA red dots; only the binder purified.

In the case of “CD2 (from UniProt P06729 25-351) (receptor)”, the binding entry in assay [1] was “binds”.

B1: SFTI-a, Cyclo(…) (peptide)
peptide: CKASAPPSCYDGDD
modifications: head-to-tail cyclization; disulfide bond
With B1, the binding result in assay [2] is recorded as “binds”.
